From US10434134B2, “Peptide treatment for inflammation and fibrosis” (The Regents of the University of California, priority 2015, dated 2019)
Some entries share one result that the patent states for a list of compounds.

Legend:
[1] = system: mouse lung Th1 and Th17 cells; experiment: Ex vivo apoptosis of primary mouse lung Th1/Th17 cells from Bleomycin-treated mice; format: cell-based; conditions: ex vivo 4 hr; 100 pM C/EBPβ peptide or 10 μg/ml IL-4, IL-10
[2] = system: human lung Th1 and Th17 cells from an IPF patient; experiment: Ex vivo apoptosis of primary human lung Th1/Th17 cells from IPF lung tissue; format: cell-based; conditions: ex vivo 16 hr; 100 pM C/EBPβ peptide or 10 μg/ml IL-4, IL-10

For IL-10: Th2 inducer, the “apoptosis of Th1/Th17 cells” value [1] was > 50% and the “apoptosis of Th1/Th17 cells from baseline” value [2] was > 35%.
